Assay results as given in the supplement of paper PMC12819154, “High-throughput peptide-centric local stability assay extends protein–ligand identification to membrane proteins, tissues and bacteria” (Nature Structural & Molecular Biology, 2025).
The other results are listed elsewhere or left out. Most entries show no effect beyond the scatter of the controls.

The chains behind the UniProt entries cited, without tags or fusion partners. Where a name states a change or a piece, a line headed by the entry shows the natural chain unless it says otherwise.
UniProt Q9NX09: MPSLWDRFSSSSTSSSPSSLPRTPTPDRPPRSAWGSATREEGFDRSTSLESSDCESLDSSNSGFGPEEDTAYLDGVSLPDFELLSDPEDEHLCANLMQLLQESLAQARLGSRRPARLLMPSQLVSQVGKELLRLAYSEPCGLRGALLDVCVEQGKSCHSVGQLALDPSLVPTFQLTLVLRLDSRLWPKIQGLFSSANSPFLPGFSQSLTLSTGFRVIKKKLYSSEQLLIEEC
UniProt Q9NQT4, whole entry: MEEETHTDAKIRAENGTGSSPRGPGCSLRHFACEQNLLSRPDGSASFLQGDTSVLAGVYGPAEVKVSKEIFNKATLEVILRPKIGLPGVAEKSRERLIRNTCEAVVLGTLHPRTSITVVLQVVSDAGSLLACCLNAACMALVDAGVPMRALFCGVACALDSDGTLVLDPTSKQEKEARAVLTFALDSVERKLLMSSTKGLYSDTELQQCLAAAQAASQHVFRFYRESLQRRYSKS
UniProt Q9NUP9: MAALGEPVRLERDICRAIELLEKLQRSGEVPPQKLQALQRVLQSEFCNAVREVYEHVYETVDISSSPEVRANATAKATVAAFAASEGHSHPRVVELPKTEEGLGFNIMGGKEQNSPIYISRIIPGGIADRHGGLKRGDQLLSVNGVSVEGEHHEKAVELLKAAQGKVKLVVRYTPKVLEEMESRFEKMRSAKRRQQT
UniProt Q9NTZ6: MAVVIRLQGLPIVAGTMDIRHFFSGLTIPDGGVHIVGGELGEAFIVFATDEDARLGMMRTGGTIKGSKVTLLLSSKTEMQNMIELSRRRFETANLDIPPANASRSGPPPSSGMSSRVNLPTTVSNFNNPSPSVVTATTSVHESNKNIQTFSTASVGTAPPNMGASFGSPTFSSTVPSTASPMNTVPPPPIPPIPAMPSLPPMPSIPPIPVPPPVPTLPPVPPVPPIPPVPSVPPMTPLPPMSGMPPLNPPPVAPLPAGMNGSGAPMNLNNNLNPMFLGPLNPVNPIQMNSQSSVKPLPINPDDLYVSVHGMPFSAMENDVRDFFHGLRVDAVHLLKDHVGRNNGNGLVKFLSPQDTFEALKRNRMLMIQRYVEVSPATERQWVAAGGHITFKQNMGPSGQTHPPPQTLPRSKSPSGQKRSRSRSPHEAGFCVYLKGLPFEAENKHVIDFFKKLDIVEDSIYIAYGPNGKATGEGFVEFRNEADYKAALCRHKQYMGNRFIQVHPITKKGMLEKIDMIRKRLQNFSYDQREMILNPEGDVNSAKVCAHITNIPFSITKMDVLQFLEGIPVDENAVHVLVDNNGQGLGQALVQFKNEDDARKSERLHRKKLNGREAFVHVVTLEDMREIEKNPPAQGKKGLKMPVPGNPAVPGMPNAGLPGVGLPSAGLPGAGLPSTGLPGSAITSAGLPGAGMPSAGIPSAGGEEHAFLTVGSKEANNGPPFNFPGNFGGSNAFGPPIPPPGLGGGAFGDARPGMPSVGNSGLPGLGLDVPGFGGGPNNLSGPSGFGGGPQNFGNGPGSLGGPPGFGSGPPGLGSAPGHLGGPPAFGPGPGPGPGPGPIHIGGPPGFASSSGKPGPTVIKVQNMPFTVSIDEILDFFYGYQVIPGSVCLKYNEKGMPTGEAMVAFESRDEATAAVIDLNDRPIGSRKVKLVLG
UniProt Q9NYL9: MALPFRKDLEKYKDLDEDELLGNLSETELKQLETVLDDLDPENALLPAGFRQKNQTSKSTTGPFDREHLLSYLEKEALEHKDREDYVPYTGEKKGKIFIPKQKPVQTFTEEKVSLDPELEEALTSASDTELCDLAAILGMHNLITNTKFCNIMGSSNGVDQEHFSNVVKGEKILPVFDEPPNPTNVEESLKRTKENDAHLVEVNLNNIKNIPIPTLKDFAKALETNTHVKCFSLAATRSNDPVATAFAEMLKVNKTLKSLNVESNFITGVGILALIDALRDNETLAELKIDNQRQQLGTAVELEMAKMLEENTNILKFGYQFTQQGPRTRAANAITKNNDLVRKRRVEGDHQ
UniProt Q9NTJ4: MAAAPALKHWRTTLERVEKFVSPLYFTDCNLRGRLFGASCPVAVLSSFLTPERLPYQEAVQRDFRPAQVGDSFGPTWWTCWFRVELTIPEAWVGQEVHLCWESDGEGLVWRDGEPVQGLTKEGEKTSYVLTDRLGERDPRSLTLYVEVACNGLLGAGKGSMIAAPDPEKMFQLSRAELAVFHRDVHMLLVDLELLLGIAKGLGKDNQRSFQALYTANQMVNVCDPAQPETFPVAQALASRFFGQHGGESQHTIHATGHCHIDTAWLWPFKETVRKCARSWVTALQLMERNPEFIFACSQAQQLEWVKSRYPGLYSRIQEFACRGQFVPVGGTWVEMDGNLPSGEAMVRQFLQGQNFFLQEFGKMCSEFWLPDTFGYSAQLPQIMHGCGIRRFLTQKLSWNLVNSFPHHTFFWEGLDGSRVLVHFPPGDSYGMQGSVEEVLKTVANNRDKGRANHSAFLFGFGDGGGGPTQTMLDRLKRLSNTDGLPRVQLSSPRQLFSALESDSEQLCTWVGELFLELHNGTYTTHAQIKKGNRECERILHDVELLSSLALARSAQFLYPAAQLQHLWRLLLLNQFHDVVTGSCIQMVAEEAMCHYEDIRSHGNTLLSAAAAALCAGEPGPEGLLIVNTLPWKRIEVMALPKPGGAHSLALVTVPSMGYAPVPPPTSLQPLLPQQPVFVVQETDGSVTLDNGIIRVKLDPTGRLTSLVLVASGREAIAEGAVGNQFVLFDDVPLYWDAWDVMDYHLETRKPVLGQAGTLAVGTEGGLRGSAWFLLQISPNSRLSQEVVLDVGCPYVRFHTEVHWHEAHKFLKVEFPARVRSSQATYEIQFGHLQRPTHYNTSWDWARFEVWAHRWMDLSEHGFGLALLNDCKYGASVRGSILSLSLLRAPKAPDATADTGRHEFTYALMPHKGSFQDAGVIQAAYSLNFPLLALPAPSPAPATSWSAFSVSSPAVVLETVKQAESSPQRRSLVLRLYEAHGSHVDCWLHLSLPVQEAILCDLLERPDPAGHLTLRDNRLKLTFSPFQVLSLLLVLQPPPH
UniProt Q9NWZ8: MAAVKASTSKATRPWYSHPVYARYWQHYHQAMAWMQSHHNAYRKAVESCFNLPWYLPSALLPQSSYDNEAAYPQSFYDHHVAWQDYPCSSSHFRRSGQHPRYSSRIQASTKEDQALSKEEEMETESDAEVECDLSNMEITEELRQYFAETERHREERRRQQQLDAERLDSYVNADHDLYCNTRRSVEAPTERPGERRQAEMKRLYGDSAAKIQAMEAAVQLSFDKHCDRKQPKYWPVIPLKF
UniProt Q9NWL6: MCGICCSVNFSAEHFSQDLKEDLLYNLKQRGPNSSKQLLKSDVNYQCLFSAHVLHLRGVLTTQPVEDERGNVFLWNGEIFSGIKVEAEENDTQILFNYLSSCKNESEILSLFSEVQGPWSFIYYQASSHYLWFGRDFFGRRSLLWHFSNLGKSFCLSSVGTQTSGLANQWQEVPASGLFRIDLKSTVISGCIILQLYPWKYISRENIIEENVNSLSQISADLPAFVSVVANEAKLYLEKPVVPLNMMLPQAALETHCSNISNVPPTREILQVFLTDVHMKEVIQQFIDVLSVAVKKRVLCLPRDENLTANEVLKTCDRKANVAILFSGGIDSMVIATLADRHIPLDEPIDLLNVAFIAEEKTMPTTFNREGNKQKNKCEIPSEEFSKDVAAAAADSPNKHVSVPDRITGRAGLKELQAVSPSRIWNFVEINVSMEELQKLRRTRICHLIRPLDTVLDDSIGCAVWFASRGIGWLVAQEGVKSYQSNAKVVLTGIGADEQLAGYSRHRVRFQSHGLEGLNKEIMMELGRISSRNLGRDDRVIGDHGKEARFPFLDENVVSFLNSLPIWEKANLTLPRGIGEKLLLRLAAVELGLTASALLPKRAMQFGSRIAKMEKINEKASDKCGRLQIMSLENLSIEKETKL
UniProt Q9NUL3: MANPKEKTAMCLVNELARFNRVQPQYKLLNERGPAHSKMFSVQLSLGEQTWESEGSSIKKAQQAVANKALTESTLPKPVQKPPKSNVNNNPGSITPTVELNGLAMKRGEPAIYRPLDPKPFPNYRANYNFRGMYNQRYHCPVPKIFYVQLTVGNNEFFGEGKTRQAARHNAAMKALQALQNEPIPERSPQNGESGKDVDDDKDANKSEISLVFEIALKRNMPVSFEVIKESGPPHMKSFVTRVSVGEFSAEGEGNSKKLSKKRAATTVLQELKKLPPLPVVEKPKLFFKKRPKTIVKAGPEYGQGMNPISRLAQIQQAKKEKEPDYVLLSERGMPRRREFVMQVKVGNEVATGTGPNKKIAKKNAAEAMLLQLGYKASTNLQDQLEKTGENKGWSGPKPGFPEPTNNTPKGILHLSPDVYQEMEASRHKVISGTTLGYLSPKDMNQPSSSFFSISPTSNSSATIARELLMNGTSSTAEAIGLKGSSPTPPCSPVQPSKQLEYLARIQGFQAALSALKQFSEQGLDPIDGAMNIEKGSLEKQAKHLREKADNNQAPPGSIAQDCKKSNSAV
UniProt Q9NRW3: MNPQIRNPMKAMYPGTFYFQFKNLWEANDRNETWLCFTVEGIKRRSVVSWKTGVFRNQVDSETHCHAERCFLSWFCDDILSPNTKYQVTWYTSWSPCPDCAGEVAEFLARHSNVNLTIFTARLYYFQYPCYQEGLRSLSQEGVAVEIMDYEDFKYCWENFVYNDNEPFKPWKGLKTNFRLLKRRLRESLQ
UniProt Q9NSP4: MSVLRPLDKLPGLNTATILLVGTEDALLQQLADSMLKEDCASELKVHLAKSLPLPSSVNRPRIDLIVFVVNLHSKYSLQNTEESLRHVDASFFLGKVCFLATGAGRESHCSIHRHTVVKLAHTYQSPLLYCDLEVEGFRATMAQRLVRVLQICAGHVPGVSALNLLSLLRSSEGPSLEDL
UniProt Q9NVN8: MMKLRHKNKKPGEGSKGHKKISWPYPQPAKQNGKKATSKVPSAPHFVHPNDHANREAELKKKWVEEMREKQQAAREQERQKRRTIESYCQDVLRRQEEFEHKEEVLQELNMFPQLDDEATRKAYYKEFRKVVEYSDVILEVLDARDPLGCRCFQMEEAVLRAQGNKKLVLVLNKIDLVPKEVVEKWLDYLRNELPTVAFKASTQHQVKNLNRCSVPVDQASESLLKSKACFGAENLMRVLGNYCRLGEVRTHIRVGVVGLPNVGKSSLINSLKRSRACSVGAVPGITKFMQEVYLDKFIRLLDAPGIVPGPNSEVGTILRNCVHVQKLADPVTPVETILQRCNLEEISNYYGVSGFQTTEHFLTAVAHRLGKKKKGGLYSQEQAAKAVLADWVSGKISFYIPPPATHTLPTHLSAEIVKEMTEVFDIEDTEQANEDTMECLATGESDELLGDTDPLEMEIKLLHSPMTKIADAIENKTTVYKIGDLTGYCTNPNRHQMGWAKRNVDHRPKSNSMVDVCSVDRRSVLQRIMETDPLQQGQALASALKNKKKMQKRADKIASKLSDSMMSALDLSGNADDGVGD
UniProt Q9NRA0: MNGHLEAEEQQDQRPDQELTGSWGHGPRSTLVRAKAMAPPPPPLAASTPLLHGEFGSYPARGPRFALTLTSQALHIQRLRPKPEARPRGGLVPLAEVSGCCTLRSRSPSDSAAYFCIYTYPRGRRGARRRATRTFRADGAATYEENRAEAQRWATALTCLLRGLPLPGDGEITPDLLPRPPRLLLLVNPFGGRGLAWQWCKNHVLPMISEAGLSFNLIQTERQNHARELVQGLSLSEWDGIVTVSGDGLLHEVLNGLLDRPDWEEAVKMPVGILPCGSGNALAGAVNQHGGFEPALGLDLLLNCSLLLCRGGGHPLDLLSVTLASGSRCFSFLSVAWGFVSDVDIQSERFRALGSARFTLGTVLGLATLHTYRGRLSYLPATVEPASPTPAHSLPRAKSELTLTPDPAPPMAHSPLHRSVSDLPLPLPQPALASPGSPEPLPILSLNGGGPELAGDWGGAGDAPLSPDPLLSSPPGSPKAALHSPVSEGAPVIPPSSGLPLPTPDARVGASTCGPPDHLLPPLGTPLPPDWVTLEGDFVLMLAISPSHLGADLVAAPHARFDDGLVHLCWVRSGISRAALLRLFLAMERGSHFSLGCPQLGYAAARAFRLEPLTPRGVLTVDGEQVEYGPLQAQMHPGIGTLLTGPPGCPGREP
UniProt Q9NUJ3: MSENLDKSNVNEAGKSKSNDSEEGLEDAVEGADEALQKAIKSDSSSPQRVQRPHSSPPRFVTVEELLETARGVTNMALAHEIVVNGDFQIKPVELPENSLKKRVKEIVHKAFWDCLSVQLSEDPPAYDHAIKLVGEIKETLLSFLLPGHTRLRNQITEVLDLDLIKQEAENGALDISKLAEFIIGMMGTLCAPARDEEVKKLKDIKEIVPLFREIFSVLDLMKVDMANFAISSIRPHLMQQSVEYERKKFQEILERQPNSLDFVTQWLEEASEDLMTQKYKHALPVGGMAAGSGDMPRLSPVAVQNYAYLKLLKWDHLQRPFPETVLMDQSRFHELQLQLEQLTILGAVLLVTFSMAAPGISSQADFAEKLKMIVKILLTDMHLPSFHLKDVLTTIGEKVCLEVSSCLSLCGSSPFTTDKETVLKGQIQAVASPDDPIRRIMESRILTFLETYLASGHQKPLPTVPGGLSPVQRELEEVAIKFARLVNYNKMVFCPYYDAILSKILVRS

What follows are targets tested with CN[C@@H]1C[C@H]2O[C@@](C)([C@@H]1OC)n1c3ccccc3c3c4c(c5c6ccccc6n2c5c31)C(=O)NC4 [staurosporine] (assay: log2 fold change of tryptic peptide abundance, ligand vs vehicle (limited proteolysis) (log2 ratio); higher = more trypsin-susceptible (destabilized)). Settings: ligand concentration: 20 uM; sample: K562 cleared lysate; digestion: 4 min, 22 C (HT-PELSA RT4min, Orbitrap Astral).

| Target | log2 fold change |
| --- | --- |
| DDIT4 (peptide sequence: TPTPDRPPR, peptide start residue: 23) (UniProt Q9NX09) | -0.181 |
| EXOSC5 (peptide sequence: AENGTGSSPR, peptide start residue: 13) (UniProt Q9NQT4) | -0.123 |
| UniProt Q9NUP9 (peptide sequence: VLQSEFCNAVR, peptide start residue: 41) | -0.0611 |
| STARD7 (peptide sequence: QFFNVQLDTEYRK, peptide start residue: 178) (UniProt Q9NQZ5) | -0.192 |
| UniProt Q9NX74 (peptide sequence: MCLLEWCR, peptide start residue: 372) | -0.183 |
| NLE1 (peptide sequence: TLESQAVETEK, peptide start residue: 76) (UniProt Q9NVX2) | 0.257 |
| RBM12 (peptide sequence: ATGEGFVEFRNEADYK, peptide start residue: 470) (UniProt Q9NTZ6) | -0.352 |
| UniProt Q9NVR5 (peptide sequence: VPKPGEQDLSR, peptide start residue: 432) | 0.616 |
| SLC35D1 (peptide sequence: QKLDSKELGK, peptide start residue: 207) (UniProt Q9NTN3) | 0.105 |
| TMOD3 (peptide sequence: AANAITKNNDLVR, peptide start residue: 331) (UniProt Q9NYL9) | -0.706 |
| UniProt Q9NYL2 (peptide sequence: LLLLEEEDLKDMGIVSK, peptide start residue: 378) | 0.29 |
| USP40 (peptide sequence: APETSLSIHVGSFR, peptide start residue: 1222) (UniProt Q9NVE5) | -0.24 |
| MAN2C1 (peptide sequence: GSMIAAPDPEK, peptide start residue: 159) (UniProt Q9NTJ4) | -1.05 |
| UniProt Q9NRY2 (peptide sequence: DFRDHAEQQHIAAQQK, peptide start residue: 54) | -0.566 |
| GEMIN8 (peptide sequence: LDSYVNADHDLYCNTR, peptide start residue: 168) (UniProt Q9NWZ8) | -0.159 |
| UniProt Q9NWU2 (peptide sequence: LIMNYLVTEGFKEAAEKFR, peptide start residue: 32) | 0.403 |
| ZNF275 (peptide sequence: VLLVQHQR, peptide start residue: 114) (UniProt Q9NSD4) | 0.524 |
| UniProt Q9NWL6 (peptide sequence: SDVNYQCLFSAHVLHLR, peptide start residue: 41) | 0.288 |
| STAU2 (peptide sequence: KEKEPDYVLLSER, peptide start residue: 320) (UniProt Q9NUL3) | 0.211 |
| UniProt Q9NUQ3 (peptide sequence: QENIELGEKLKK, peptide start residue: 267) | 1.23 |
| MBIP (peptide sequence: RISAFIER, peptide start residue: 162) (UniProt Q9NS73) | -0.78 |
| APOBEC3C (peptide sequence: NQVDSETHCHAER, peptide start residue: 57) (UniProt Q9NRW3) | -0.102 |
| CENPM (peptide sequence: VCFLATGAGR, peptide start residue: 97) (UniProt Q9NSP4) | 0.207 |
| GNL3L (peptide sequence: ISFYIPPPATHTLPTHLSAEIVK, peptide start residue: 397) (UniProt Q9NVN8) | 0.3 |
| PNO1 (peptide sequence: RPVFPPLCGDGLLSGKEETR, peptide start residue: 57) (UniProt Q9NRX1) | -0.148 |
| SPHK2 (peptide sequence: AKSELTLTPDPAPPMAHSPLHR, peptide start residue: 397) (UniProt Q9NRA0) | 0.403 |
| UniProt Q9NUJ3 (peptide sequence: HALPVGGMAAGSGDMPR, peptide start residue: 282) | 0.00836 |
| MRPS18A (peptide sequence: WAPGSVKPIYK, peptide start residue: 154) (UniProt Q9NVS2) | -0.127 |

Reformatted: entries from further up.
Target,log2 fold change
"STAU2 (peptide sequence: KEKEPDYVLLSER, peptide start residue: 320) (UniProt Q9NUL3)",0.211
"UniProt Q9NUQ3 (peptide sequence: QENIELGEKLKK, peptide start residue: 267)",1.23
